# The other results are listed elsewhere or left out.
# Amino acid sequences for entries named in this document (tags omitted). A change or cut given only in a name is not applied to a line headed by its entry.
# UniProt Q96S52: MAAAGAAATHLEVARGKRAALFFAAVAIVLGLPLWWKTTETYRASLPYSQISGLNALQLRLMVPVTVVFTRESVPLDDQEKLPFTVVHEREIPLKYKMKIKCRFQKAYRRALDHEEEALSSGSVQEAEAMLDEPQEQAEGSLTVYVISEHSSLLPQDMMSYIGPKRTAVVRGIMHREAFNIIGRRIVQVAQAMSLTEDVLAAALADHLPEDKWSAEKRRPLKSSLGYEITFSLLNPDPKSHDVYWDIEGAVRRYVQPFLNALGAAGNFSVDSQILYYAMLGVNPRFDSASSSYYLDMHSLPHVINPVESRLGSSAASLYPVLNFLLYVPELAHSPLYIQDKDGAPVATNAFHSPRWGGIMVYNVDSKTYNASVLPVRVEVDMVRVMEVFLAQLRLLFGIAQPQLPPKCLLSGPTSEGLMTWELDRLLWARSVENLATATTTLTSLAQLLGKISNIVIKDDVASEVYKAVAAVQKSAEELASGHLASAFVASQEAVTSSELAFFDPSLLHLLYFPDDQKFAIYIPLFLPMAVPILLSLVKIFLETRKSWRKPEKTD
# UniProt Q9Y263: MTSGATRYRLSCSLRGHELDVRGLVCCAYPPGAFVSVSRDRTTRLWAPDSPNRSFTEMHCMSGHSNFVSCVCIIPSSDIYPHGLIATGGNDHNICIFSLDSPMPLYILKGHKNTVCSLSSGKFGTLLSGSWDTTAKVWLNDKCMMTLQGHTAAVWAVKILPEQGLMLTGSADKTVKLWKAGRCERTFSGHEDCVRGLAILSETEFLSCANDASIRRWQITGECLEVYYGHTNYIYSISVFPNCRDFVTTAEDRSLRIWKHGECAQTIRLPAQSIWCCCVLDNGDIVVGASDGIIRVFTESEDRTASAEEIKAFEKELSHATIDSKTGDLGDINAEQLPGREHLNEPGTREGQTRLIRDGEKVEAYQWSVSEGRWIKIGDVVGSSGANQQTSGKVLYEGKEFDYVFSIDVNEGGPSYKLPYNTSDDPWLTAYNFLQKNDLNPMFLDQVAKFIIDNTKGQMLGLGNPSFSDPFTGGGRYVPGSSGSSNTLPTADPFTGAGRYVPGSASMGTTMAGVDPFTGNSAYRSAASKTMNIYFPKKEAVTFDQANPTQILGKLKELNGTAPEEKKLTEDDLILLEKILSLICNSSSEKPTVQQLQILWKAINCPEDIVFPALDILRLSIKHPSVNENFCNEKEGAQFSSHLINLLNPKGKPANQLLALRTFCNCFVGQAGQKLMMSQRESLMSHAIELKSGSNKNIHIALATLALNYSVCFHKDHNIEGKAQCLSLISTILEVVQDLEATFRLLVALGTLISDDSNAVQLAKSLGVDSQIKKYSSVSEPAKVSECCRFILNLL
# UniProt P17858: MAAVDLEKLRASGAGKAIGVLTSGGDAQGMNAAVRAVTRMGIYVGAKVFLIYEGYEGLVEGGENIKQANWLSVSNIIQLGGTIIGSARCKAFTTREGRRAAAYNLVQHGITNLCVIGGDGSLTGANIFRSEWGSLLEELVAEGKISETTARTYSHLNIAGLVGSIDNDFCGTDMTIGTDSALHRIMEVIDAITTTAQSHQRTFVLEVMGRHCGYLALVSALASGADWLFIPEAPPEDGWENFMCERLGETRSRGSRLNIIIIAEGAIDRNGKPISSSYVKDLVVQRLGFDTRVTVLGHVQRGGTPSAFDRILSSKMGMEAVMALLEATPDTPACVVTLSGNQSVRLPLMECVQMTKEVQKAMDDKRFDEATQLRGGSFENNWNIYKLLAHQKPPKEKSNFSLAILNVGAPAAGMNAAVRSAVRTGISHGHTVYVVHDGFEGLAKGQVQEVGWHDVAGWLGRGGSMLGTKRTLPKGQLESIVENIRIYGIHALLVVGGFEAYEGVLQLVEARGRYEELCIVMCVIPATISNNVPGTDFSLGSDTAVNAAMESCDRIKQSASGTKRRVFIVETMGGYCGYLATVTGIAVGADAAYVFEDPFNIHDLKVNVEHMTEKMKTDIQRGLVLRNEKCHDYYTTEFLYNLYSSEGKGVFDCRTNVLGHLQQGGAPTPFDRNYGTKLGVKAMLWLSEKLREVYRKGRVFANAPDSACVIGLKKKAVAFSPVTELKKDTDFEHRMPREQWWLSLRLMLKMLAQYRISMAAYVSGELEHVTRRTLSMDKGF
# UniProt Q8N4L2: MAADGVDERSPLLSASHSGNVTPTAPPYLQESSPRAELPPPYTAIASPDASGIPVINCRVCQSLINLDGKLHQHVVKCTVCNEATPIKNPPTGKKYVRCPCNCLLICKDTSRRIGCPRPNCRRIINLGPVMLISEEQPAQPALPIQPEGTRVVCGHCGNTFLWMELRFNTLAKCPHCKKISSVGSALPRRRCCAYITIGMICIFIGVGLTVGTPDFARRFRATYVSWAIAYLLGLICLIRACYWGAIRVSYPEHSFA
# UniProt Q8IZ21: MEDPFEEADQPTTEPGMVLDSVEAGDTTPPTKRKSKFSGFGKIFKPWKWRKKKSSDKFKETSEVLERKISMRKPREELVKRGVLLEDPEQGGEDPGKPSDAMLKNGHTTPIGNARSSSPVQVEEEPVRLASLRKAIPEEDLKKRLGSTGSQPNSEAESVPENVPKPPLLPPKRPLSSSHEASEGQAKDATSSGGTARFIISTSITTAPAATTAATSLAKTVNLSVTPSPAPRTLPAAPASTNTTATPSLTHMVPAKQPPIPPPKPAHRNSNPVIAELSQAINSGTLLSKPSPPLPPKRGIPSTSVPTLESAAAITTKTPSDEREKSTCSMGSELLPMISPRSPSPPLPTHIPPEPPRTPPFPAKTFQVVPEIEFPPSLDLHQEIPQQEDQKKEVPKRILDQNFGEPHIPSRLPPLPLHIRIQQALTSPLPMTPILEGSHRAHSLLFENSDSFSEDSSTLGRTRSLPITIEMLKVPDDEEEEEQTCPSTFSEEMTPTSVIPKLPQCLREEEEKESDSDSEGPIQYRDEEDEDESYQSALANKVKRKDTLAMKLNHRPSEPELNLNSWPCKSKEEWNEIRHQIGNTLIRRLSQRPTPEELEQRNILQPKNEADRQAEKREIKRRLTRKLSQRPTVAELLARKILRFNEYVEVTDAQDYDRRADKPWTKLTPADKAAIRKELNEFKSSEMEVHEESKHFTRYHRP
# UniProt P48426: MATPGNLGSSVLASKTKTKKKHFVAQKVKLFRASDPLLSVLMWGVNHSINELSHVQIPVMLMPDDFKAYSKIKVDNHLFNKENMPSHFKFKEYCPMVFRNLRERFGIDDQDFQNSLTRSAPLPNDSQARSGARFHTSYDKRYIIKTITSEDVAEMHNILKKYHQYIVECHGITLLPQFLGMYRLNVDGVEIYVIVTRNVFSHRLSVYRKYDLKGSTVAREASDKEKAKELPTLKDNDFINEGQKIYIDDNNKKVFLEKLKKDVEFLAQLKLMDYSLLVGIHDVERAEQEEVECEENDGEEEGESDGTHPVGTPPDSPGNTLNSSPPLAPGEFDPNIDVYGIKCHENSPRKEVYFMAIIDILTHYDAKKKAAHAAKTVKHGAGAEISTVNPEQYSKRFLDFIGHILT
# UniProt Q9Y5Y5: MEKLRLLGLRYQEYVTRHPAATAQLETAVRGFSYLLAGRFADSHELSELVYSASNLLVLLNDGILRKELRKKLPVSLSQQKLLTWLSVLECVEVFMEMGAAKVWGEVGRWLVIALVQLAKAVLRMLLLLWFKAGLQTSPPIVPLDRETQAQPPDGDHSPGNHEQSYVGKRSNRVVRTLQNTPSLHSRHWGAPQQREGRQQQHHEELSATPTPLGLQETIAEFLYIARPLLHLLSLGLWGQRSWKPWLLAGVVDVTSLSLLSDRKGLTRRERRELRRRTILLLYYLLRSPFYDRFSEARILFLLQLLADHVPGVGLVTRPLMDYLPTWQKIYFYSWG
# UniProt P15735: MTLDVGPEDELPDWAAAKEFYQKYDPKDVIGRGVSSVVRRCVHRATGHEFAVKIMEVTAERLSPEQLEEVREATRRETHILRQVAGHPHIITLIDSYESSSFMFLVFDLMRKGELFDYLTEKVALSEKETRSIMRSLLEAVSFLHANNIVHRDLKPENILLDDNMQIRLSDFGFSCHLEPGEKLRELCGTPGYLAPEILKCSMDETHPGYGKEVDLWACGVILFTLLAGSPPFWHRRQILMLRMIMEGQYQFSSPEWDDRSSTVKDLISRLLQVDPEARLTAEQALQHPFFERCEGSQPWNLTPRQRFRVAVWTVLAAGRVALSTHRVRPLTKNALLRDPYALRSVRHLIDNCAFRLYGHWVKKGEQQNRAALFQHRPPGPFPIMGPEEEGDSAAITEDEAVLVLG
# UniProt P37287: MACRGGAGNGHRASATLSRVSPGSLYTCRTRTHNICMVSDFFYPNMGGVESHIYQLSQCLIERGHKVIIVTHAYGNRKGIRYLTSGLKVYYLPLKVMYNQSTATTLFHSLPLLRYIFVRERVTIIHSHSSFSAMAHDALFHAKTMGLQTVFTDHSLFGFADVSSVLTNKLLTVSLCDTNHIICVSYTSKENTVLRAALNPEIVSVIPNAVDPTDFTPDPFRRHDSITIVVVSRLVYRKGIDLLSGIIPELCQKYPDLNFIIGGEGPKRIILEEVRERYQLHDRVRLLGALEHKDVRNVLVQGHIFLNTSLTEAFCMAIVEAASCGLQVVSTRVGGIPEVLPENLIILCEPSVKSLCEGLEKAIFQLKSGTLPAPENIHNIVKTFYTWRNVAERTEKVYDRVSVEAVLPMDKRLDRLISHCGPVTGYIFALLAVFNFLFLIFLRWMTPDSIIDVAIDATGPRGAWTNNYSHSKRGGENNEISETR
# UniProt P07737, whole entry, looked up: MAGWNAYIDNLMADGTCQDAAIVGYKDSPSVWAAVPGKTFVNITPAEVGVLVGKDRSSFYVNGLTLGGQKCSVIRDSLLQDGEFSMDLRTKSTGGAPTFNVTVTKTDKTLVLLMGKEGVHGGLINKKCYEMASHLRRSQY
# UniProt P51178: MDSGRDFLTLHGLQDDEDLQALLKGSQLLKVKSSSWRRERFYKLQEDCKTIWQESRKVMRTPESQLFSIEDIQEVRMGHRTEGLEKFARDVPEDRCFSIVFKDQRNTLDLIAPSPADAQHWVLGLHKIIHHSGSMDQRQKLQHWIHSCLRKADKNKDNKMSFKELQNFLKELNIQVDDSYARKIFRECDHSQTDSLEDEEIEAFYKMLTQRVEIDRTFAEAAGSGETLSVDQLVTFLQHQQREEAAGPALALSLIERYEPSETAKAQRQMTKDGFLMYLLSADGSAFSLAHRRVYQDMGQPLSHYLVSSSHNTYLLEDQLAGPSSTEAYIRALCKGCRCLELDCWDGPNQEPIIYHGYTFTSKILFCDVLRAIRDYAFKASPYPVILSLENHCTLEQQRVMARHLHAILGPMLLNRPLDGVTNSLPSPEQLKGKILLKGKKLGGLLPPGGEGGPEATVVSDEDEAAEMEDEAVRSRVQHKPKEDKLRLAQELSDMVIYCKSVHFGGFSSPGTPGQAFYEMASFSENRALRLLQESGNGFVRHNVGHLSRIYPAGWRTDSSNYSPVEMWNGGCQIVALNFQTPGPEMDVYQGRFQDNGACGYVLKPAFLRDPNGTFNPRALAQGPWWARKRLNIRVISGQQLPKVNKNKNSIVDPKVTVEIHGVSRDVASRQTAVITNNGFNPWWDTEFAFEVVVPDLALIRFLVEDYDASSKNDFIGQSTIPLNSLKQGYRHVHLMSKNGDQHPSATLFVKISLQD
# UniProt Q16875: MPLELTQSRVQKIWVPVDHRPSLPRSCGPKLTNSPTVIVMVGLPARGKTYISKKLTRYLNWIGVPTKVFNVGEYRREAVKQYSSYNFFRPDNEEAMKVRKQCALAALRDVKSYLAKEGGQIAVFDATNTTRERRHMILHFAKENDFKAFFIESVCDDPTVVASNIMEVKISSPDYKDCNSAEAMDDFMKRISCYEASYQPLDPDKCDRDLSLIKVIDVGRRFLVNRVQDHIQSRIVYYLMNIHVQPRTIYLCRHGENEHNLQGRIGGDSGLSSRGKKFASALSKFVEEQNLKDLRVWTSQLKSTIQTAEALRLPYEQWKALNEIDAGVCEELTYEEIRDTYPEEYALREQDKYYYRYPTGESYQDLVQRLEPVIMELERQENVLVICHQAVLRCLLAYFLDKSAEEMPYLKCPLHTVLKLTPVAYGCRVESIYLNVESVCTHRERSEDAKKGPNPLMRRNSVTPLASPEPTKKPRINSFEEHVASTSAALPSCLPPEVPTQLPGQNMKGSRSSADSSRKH
# UniProt P53609, whole entry, looked up: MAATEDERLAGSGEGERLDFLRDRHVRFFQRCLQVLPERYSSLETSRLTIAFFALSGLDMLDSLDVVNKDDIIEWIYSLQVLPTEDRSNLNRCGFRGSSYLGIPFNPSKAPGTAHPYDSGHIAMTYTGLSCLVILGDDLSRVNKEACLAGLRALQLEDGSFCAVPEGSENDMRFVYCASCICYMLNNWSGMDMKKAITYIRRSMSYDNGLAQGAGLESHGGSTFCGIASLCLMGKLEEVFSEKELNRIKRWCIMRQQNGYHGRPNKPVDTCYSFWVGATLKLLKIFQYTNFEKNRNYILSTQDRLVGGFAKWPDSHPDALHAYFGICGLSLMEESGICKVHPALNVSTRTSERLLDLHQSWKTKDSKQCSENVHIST
# What was measured:
# Experiment in all cases: log2 fold change, soluble protein after heating vs DMSO (PISA); higher = thermal stabilisation; K562 cells, 10 uM, 30 min; active = over 0.2 and 3.5 SD of the protein, either way, in both replicates (recomputed)
# [1] = compound: C#Cc1cccc(Nc2ncnc3cc(OCCOC)c(OCCOC)cc23)c1 [erlotinib]
# In short: (§1)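 Soluble protein was defined as the supernatant after 21,000xg for 90 min. It came from K562 cells at 2×10^6 cells/mL given 10 μM compound for 30 min, heated in aliquots for 3 min across 48°C-58°C, pooled, and extracted in PBS with 0.5% NP-40 at 4°C, and was quantified by TMTpro 16plex LC-MS/MS with equalised channel sums. Thermal stability against control samples, from duplicates, is reported as log2 fold change.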
# [2] = compound: C/C(=N\NC(=O)C1=CC(=CC=C1)S(=O)(=O)N2CCOCC2)/C3=C(C=CC(=C3)Cl)O
# In short: as §1
# [3] = compound: C1=CC(=C(C=C1Cl)C2=NC3=NC=CN=C3C(=N2)NC4=CC=NC=C4)F
# In short: as §1
# [4] = compound: C1=CC(=CC=C1C2=NC3=C(N2)C=C(C=C3)C(=O)N)OC4=CC=C(C=C4)Cl
# In short: as §1
# [5] = compound: C1=CC2=C(C=CC(=C2)/C=C\3/C(=O)NC(=NCC4=CC=CS4)S3)N=C1
# In short: as §1
# [6] = compound: C1=CC2=NC=CN=C2C=C1/C=C/3\C(=O)NC(=O)S3
# In short: as §1
# [7] = compound: C1=CC=C(C=C1)C2=NC(=C(N2)C3=CC=NC=C3)C4=CC(=C(C=C4)Cl)O
# In short: as §1
# [8] = compound: C1=CC=C2C(=C1)C3=NNC4=CC=CC(=C43)C2=O
# In short: as §1
# [9] = compound: C1CCN(C1)C(=O)NC2=CC=CC(=C2)NC3=NC=C(C(=N3)NCCC4=CN=CN4)Br
# In short: as §1
# [10] = compound: C1CN(CCC1(CC2=CC=C(C=C2)Cl)N)C3=NC=NC4=C3C=CN4
# In short: as §1
Target,log2 fold change [1],log2 fold change [2],log2 fold change [3],log2 fold change [4],log2 fold change [5],log2 fold change [6],log2 fold change [7],log2 fold change [8],log2 fold change [9],log2 fold change [10]
PIGG (UniProt Q5H8A4),inactive: -0.002,inactive: 0.016,inactive: -0.009,inactive: 0.027,inactive: 0.023,inactive: 0.014,inactive: -0.013,inactive: -0.003,inactive: -0.016,inactive: 0.067
PFKP (UniProt Q01813),inactive: 0.006,inactive: 0.012,inactive: 0.008,inactive: 0.005,inactive: 0.001,inactive: -0.021,inactive: -0.035,inactive: -0.008,inactive: -0.04,inactive: 0.013
PIGS (UniProt Q96S52),inactive: -0.032,inactive: 0.03,inactive: -0.02,inactive: -0.015,inactive: 0.028,inactive: 0.034,inactive: 0.021,inactive: -0.03,inactive: -0.035,inactive: 0.009
PLAA (UniProt Q9Y263),inactive: 0.033,inactive: 0.012,inactive: 0,inactive: 0.05,inactive: -0.006,inactive: -0.02,inactive: 0.045,inactive: -0.024,inactive: -0.006,inactive: -0.019
PEX7 (UniProt O00628),inactive: 0.021,inactive: 0.034,inactive: 0.034,active: 0.276,inactive: 0.08,inactive: -0.117,inactive: 0.039,inactive: -0.041,inactive: -0.031,inactive: 0.063
PLEC (UniProt Q15149),inactive: -0.016,inactive: -0.059,inactive: -0.154,inactive: -0.017,inactive: -0.005,inactive: -0.042,inactive: -0.003,inactive: 0.032,inactive: -0.004,inactive: -0.134
PGPEP1 (UniProt Q9NXJ5),inactive: 0.1,inactive: 0.139,inactive: -0.02,inactive: 0.061,inactive: -0.092,inactive: 0.032,inactive: -0.092,inactive: 0.022,,
PIK3CA (UniProt P42336),inactive: 0.038,inactive: 0.045,inactive: -0.101,inactive: 0.056,inactive: 0.028,inactive: -0.034,inactive: -0.055,inactive: 0.136,,
PIK3R2 (UniProt O00459),inactive: 0.085,inactive: 0.087,inactive: -0.134,inactive: -0.033,inactive: 0.004,inactive: -0.09,inactive: 0.013,inactive: 0.09,inactive: 0.014,inactive: -0.027
PFKL isoform 2 (UniProt P17858),inactive: -0.008,inactive: -0.016,inactive: 0.041,inactive: 0.043,inactive: 0.023,inactive: 0.013,inactive: -0.005,inactive: -0.005,inactive: -0.02,inactive: 0.053
PLCH1 (UniProt Q4KWH8),inactive: 0.008,inactive: -0.102,inactive: 0.01,inactive: 0.046,inactive: 0.124,inactive: 0.07,inactive: -0.076,inactive: 0.068,inactive: 0.009,inactive: -0.06
PIP4P1 isoform 2 (UniProt Q86T03),inactive: 0.057,inactive: 0.001,inactive: 0.052,inactive: -0.014,inactive: -0.104,inactive: 0.068,inactive: 0.002,inactive: 0.035,inactive: -0.028,inactive: 0.101
PIP4P2 (UniProt Q8N4L2),inactive: 0.014,inactive: -0.066,inactive: 0.026,inactive: 0.039,inactive: 0.009,inactive: 0.145,inactive: 0.063,inactive: -0.002,inactive: 0.014,inactive: -0.007
PHACTR4 isoform 2 (UniProt Q8IZ21),inactive: 0.008,inactive: -0.028,inactive: 0.038,inactive: 0,inactive: 0.035,inactive: 0.023,inactive: -0.002,inactive: -0.059,inactive: -0.042,inactive: 0.051
PEX2 (UniProt P28328),inactive: -0.067,inactive: 0.07,inactive: 0.092,inactive: -0.087,inactive: 0.025,inactive: 0.129,inactive: 0.039,inactive: -0.011,inactive: -0.069,inactive: 0.068
PIK3CB (UniProt P42338),inactive: 0.07,inactive: 0.018,inactive: 0.002,inactive: -0.022,inactive: 0.081,inactive: 0.09,inactive: 0.032,inactive: 0.014,inactive: -0.016,inactive: 0.004
PIGL (UniProt Q9Y2B2),inactive: -0.022,inactive: 0.022,inactive: -0.041,inactive: 0.031,inactive: 0.137,inactive: 0.037,inactive: -0.013,inactive: -0.13,inactive: 0.009,inactive: 0.128
PIP4K2A (UniProt P48426),inactive: 0.172,inactive: 0.028,inactive: 0.075,inactive: -0.058,inactive: -0.065,inactive: 0.287,inactive: 0.108,inactive: 0.076,inactive: 0.162,inactive: -0.013
PEX16 isoform 2 (UniProt Q9Y5Y5),inactive: 0.081,inactive: -0.044,inactive: 0.147,inactive: 0.013,inactive: 0.085,inactive: 0.06,inactive: 0.008,inactive: -0.004,inactive: -0.031,inactive: 0.051
PHKG2 (UniProt P15735),inactive: -0.067,inactive: -0.078,inactive: 0.021,inactive: -0.003,inactive: -0.055,inactive: -0.113,inactive: 0.034,inactive: 0.076,inactive: -0.159,inactive: 0.029
PKN1 isoform 2 (UniProt Q16512),inactive: 0.018,inactive: 0.088,inactive: 0.064,inactive: 0.055,inactive: 0.059,inactive: 0,inactive: 0.011,inactive: 0,inactive: -0.061,active: -0.326
PLD1 (UniProt Q13393),inactive: -0.061,inactive: -0.011,inactive: -0.113,inactive: 0.092,inactive: 0.075,inactive: 0.01,inactive: 0.058,inactive: -0.061,inactive: -0.171,inactive: -0.089
PIGA (UniProt P37287),inactive: -0.038,inactive: -0.047,inactive: 0.011,inactive: -0.019,inactive: -0.1,inactive: 0.056,inactive: 0.128,inactive: -0.102,inactive: -0.007,inactive: 0.039
PIEZO1 (UniProt Q92508),inactive: -0.017,inactive: -0.035,inactive: 0.004,inactive: 0.02,inactive: 0.056,inactive: 0.018,inactive: 0.007,inactive: -0.032,inactive: 0.017,inactive: 0.07
PFN1 (UniProt P07737),inactive: -0.014,inactive: 0.059,inactive: 0.091,inactive: -0.004,inactive: -0.005,inactive: 0.003,inactive: 0.003,inactive: 0.02,inactive: -0.016,inactive: 0.022
PIGH (UniProt Q14442),inactive: -0.036,inactive: 0.068,inactive: 0.049,inactive: 0.027,inactive: 0.042,inactive: -0.03,inactive: -0.065,inactive: -0.054,inactive: -0.005,inactive: 0.009
PLCD1 isoform 2 (UniProt P51178),inactive: 0.01,inactive: 0.044,inactive: -0.031,inactive: 0.01,inactive: 0.117,inactive: -0.01,inactive: 0.017,inactive: 0.007,inactive: 0.022,inactive: -0.053
PFKFB3 isoform 4 (UniProt Q16875),inactive: -0.04,inactive: 0.038,inactive: 0.074,inactive: 0.013,inactive: 0.039,inactive: -0.063,inactive: 0.005,inactive: -0.005,inactive: -0.035,inactive: 0.003
PLCB3 (UniProt Q01970),inactive: -0.004,inactive: 0.028,inactive: 0.005,inactive: 0.023,inactive: 0.054,inactive: 0.016,inactive: -0.011,inactive: 0.034,inactive: -0.057,inactive: -0.07
PGGT1B (UniProt P53609),inactive: 0.024,inactive: 0.036,inactive: 0.114,inactive: 0.006,inactive: 0.049,inactive: -0.002,inactive: 0.021,inactive: -0.036,inactive: 0.054,inactive: 0.027

# Single records, from the list above. Order of values: log2 fold change [1] | log2 fold change [2] | log2 fold change [3] | log2 fold change [4] | log2 fold change [5] | log2 fold change [6] | log2 fold change [7] | log2 fold change [8] | log2 fold change [9] | log2 fold change [10]
# PFKL isoform 2 (UniProt P17858) is listed with inactive: -0.008 | inactive: -0.016 | inactive: 0.041 | inactive: 0.043 | inactive: 0.023 | inactive: 0.013 | inactive: -0.005 | inactive: -0.005 | inactive: -0.02 | inactive: 0.053
# PGGT1B (UniProt P53609) is listed with inactive: 0.024 | inactive: 0.036 | inactive: 0.114 | inactive: 0.006 | inactive: 0.049 | inactive: -0.002 | inactive: 0.021 | inactive: -0.036 | inactive: 0.054 | inactive: 0.027

# — the supplement of paper PMC10849652
